Data published in PMC5053694.
Results are given in words; binding and its absence hold for the method and conditions named. Binding seen in cells or lysates may run through a third protein. Some binding calls cover weakened binding; strength is not graded here.

Chains of the proteins cited; added tags and fusions are not shown. Residues count along the entry.
UniProt Q9BYZ8, residues 23-158: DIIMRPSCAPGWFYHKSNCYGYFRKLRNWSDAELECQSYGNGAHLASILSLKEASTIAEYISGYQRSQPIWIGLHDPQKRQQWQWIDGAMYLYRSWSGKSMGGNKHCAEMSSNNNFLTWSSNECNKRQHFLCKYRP

Target: REG4-Flag (regenerating islet-derived family, member 4, Flag-tagged) (human) (UniProt Q9BYZ8)
Test: co-IP; whole cell extracts of SGC-7901/REG4-Flag immunoprecipitated with anti-Flag antibody, and of SGC-7901/GPR37-HA with anti-HA antibody; blots with anti-GPR37 and anti-REG4 antibody

B1: G protein-coupled receptor 37 (GPR37) (receptor, UniProt O15354 27-613)
chain: ALGVAPASRNETCLGESCAPTVIQRRGRDAWGPGNSARDVLRARAPREEQGAAFLAGPSWDLPAAPGRDPAAGRGAEASAAGPPGPPTRPPGPWRWKGARGQEPSETLGRGNPTALQLFLQISEEEEKGPRGAGISGRSQEQSVKTVPGASDLFYWPRRAGKLQGSHHKPLSKTANGLAGHEGWTIALPGRALAQNGSLGEGIHEPGGPRRGNSTNRRVRLKNPFYPLTQESYGAYAVMCLSVVIFGTGIIGNLAVMCIVCHNYYMRSISNSLLANLAFWDFLIIFFCLPLVIFHELTKKWLLEDFSCKIVPYIEVASLGVTTFTLCALCIDRFRAATNVQMYYEMIENCSSTTAKLAVIWVGALLLALPEVVLRQLSKEDLGFSGRAPAERCIIKISPDLPDTIYVLALTYDSARLWWYFGCYFCLPTLFTITCSLVTARKIRKAEKACTRGNKRQIQLESQMNCTVVALTILYGFCIIPENICNIVTAYMATGVSQQTMDLLNIISQFLLFFKSCVTPVLLFCLCKPFSRAFMECCCCCCEECIQKSSTVTSDDNDNEYTTELELSPFSTIRREMSTFASVGTHC
With B1 the binding was “binds”.
